Reference: the supplement of paper PMC4604168 (melanoma cell lines)
The list shows a part of the results. Single values are uncertain, as repeats are few or missing.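 Imaging used 1,536-well plates; nuclei positive for cleaved PARP by antibody were divided by total DNA-stained nuclei to yield the apoptosis fraction. Doses for screening kept most cells viable, and cell lines differ markedly in resting and induced cleaved-PARP levels.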

Test system: CBRC013 (line from a melanoma biopsy)
Experiment: cleaved PARP positive nuclei fraction relative to DMSO control; melanoma cells; higher = more apoptosis
Settings: library dose: low library concentration; 72 h

| SMILES | cleaved PARP positive nuclei fraction [%] |
| --- | --- |
| CN(C)S(=O)(=O)c1ccc2c(c1)/C(=C/c1cc3c([nH]1)CCCC3)C(=O)N2 + COc1cc2ncnc(Nc3ccc(Oc4ccccc4)cc3)c2cc1OC [SrcI1] (first compound 0.4 µM, partner dose 2 µM) | 146 |
| NCC(=O)Nc1ccc(-n2nc(C(F)(F)F)cc2-c2ccc3c(ccc4ccccc43)c2)cc1 + Cn1cc(/C=C2\C(=O)Nc3cccnc32)c2ccccc21 [GW441756] (first compound 1 µM, partner dose 0.4 µM) | 341 |
| O=C(Nc1ccccc1)c1cc([N+](=O)[O-])ccc1Cl + Oc1cc(-c2nc(-c3ccccc3)[nH]c2-c2ccncc2)ccc1Cl [L779450] (first compound 2 µM, partner dose 0.2 µM) | 69.3 |
| O=C1NC(=O)/C(=C/c2ccc(-c3ccc(F)cc3O)o2)S1 + c1cc(-c2cnn3cc(-c4ccc(OCCN5CCCCC5)cc4)cnc23)ccn1 [Dorsomorphin] (first compound 1 µM, partner dose 0.4 µM) | 96.3 |
| COC(=O)c1sccc1S(=O)(=O)Nc1ccc(Nc2ccccc2)cc1OC + COc1ccc(COc2ccc(Cc3cnc(N)nc3N)cc2OC)cc1 [GW2580] (first compound 1 µM, partner dose 1 µM) | 60.4 |
| COc1cc2c(Oc3ccc4[nH]c(C)cc4c3F)ncnc2cc1OCCCN1CCCC1 [cediranib] + CCN(CC)CCCCNc1ncc2cc(-c3cc(OC)cc(OC)c3)c(NC(=O)NC(C)(C)C)nc2n1 [PD173074] (first compound 0.4 µM, partner dose 0.1 µM) | 96.7 |
| O=C1NC(=O)/C(=C/c2ccc(-c3ccc(F)cc3O)o2)S1 + COc1cc(N2CCC(N3CCN(C)CC3)CC2)ccc1Nc1ncc(Cl)c(Nc2ccccc2S(=O)(=O)C(C)C)n1 [NVP-TAE684] (first compound 1 µM, partner dose 0.08 µM) | 216 |
| O=C(O)c1ccc(-c2c[nH]c3ncc(-c4ccccc4)cc23)cc1C1CCCC1 + O=C(O)C(=O)Nc1sc2c(c1C(=O)O)CCNC2 [TCS401] (first compound 0.16 µM, partner dose 1.66667 µM) | 188 |
| CN(NC(=O)CC(=O)NN(C)C(=S)c1ccccc1)C(=S)c1ccccc1 + CCN(CC)CCCCNc1ncc2cc(-c3cc(OC)cc(OC)c3)c(NC(=O)NC(C)(C)C)nc2n1 [PD173074] (first compound 0.006 µM, partner dose 0.1 µM) | 209 |
| NCC(=O)Nc1ccc(-n2nc(C(F)(F)F)cc2-c2ccc3c(ccc4ccccc43)c2)cc1 + Cc1cc([N+](=O)[O-])ccc1NS(=O)(=O)c1cc(Cl)ccc1Cl [FH535] (first compound 1 µM, partner dose 1 µM) | 308 |
| COc1ccc(COc2ccc(Cc3cnc(N)nc3N)cc2OC)cc1 + O=S(=O)(c1ccccc1)N(CC(F)(F)F)c1ccc(C(O)(C(F)(F)F)C(F)(F)F)cc1 [T0901317] (first compound 1 µM, partner dose 1.4 µM) | 129 |
| O=C(Nc1ccccc1)c1cc([N+](=O)[O-])ccc1Cl + COc1ccc(COc2ccc(Cc3cnc(N)nc3N)cc2OC)cc1 [GW2580] (first compound 2 µM, partner dose 1 µM) | 131 |
| NCC(=O)Nc1ccc(-n2nc(C(F)(F)F)cc2-c2ccc3c(ccc4ccccc43)c2)cc1 + COc1ccc(-c2ccc3c(N4CCOCC4)nc(N4C[C@@H](C)O[C@@H](C)C4)nc3n2)cc1CO [KU0063794] (first compound 1 µM, partner dose 0.02 µM) | 72.3 |
| COc1cc2c(Oc3ccc4[nH]c(C)cc4c3F)ncnc2cc1OCCCN1CCCC1 [cediranib] + COc1ccc(-c2ccc3c(N4CCOCC4)nc(N4C[C@@H](C)O[C@@H](C)C4)nc3n2)cc1CO [KU0063794] (first compound 0.4 µM, partner dose 0.02 µM) | 242 |
| O=S(=O)(c1ccccc1)N(CC(F)(F)F)c1ccc(C(O)(C(F)(F)F)C(F)(F)F)cc1 + CC(C)CCN1c2nc(Nc3cc(F)c(O)c(F)c3)ncc2N(C)C(=O)C1C [BID1870] (first compound 1.4 µM, partner dose 0.2 µM) | 57.9 |
| NCC(=O)Nc1ccc(-n2nc(C(F)(F)F)cc2-c2ccc3c(ccc4ccccc43)c2)cc1 + COc1cc2ncnc(Nc3ccc(Oc4ccccc4)cc3)c2cc1OC [SrcI1] (first compound 1 µM, partner dose 2 µM) | 442 |
| NCC(=O)Nc1ccc(-n2nc(C(F)(F)F)cc2-c2ccc3c(ccc4ccccc43)c2)cc1 + O=C1NC(=O)/C(=C/c2ccc(-c3ccc(F)cc3O)o2)S1 [AS252424] (first compound 1 µM, partner dose 1 µM) | 561 |
| COc1cc2ncnc(Nc3ccc(Oc4ccccc4)cc3)c2cc1OC + c1cc(-c2cnn3cc(-c4ccc(OCCN5CCCCC5)cc4)cnc23)ccn1 [Dorsomorphin] (first compound 2 µM, partner dose 0.4 µM) | 61.8 |

| SMILES | cleaved PARP positive nuclei fraction [%] |
| --- | --- |
| CCc1ccc(CCOc2ccc(CC3SC(=O)NC3=O)cc2)nc1 (stereo unspecified) [pioglitazone] + COC(=O)c1sccc1S(=O)(=O)Nc1ccc(Nc2ccccc2)cc1OC [GSK0660] (first compound 2 µM, partner dose 1 µM) | 162 |
| O=C(Nc1ccccc1)c1cc([N+](=O)[O-])ccc1Cl + COc1ccc2c(c1)CCC1C2CCC2(C)C(NCCCCCCN3C(=O)C=CC3=O)CCC12 [U73122] (first compound 2 µM, partner dose 0.4 µM) | 109 |
| COc1cc2c(Oc3ccc4[nH]c(C)cc4c3F)ncnc2cc1OCCCN1CCCC1 [cediranib] + O=C1NC(=O)/C(=C/c2ccc(-c3ccc(F)cc3O)o2)S1 [AS252424] (first compound 0.4 µM, partner dose 1 µM) | 92.6 |
| O=C(O)c1ccc(-c2c[nH]c3ncc(-c4ccccc4)cc23)cc1C1CCCC1 + CCc1ccc(CCOc2ccc(CC3SC(=O)NC3=O)cc2)nc1 [pioglitazone] (first compound 0.16 µM, partner dose 2 µM) | 69.7 |
| COc1cc2ncnc(Nc3ccc(Oc4ccccc4)cc3)c2cc1OC + Oc1cc(-c2nc(-c3ccccc3)[nH]c2-c2ccncc2)ccc1Cl [L779450] (first compound 2 µM, partner dose 0.2 µM) | 181 |
| Oc1nc(-c2ccc(C(F)(F)F)cc2)nc2c1CSCC2 + O=c1cc(-c2cccc3c2Sc2ccccc2S3)oc(N2CCOCC2)c1 [KU55933] (first compound 2 µM, partner dose 1 µM) | 45.6 |
| COc1ccc(-c2ccc3c(N4CCOCC4)nc(N4C[C@@H](C)O[C@@H](C)C4)nc3n2)cc1CO + O=S(=O)(c1ccccc1)N(CC(F)(F)F)c1ccc(C(O)(C(F)(F)F)C(F)(F)F)cc1 [T0901317] (first compound 0.02 µM, partner dose 1.4 µM) | 96 |
| N#Cc1c(O)c2c(-c3ccc(-c4ccccc4O)cc3)csc2[nH]c1=O + Cn1cc(/C=C2\C(=O)Nc3cccnc32)c2ccccc21 [GW441756] (first compound 2 µM, partner dose 0.4 µM) | 108 |
| NCC(=O)Nc1ccc(-n2nc(C(F)(F)F)cc2-c2ccc3c(ccc4ccccc43)c2)cc1 + O=C(O)C(=O)Nc1sc2c(c1C(=O)O)CCNC2 [TCS401] (first compound 1 µM, partner dose 1.66667 µM) | 74.7 |
| NCC(=O)Nc1ccc(-n2nc(C(F)(F)F)cc2-c2ccc3c(ccc4ccccc43)c2)cc1 + CCc1ccc(CCOc2ccc(CC3SC(=O)NC3=O)cc2)nc1 [pioglitazone] (first compound 1 µM, partner dose 2 µM) | 152 |
| O=C(Nc1ccccc1)c1cc([N+](=O)[O-])ccc1Cl + CC(C)CCN1c2nc(Nc3cc(F)c(O)c(F)c3)ncc2N(C)C(=O)C1C [BID1870] (first compound 2 µM, partner dose 0.2 µM) | 136 |
| O=C(O)c1ccc(-c2c[nH]c3ncc(-c4ccccc4)cc23)cc1C1CCCC1 + Oc1cc(-c2nc(-c3ccccc3)[nH]c2-c2ccncc2)ccc1Cl [L779450] (first compound 0.16 µM, partner dose 0.2 µM) | 135 |
| CN(C)S(=O)(=O)c1ccc2c(c1)/C(=C/c1cc3c([nH]1)CCCC3)C(=O)N2 + COc1ccc(COc2ccc(Cc3cnc(N)nc3N)cc2OC)cc1 [GW2580] (first compound 0.4 µM, partner dose 1 µM) | 75.1 |
| COc1ccc(COc2ccc(Cc3cnc(N)nc3N)cc2OC)cc1 + c1cc(-c2cnn3cc(-c4ccc(OCCN5CCCCC5)cc4)cnc23)ccn1 [Dorsomorphin] (first compound 1 µM, partner dose 0.4 µM) | 71 |
| COc1ccc(-c2ccc3c(N4CCOCC4)nc(N4C[C@@H](C)O[C@@H](C)C4)nc3n2)cc1CO + Oc1cc(-c2nc(-c3ccccc3)[nH]c2-c2ccncc2)ccc1Cl [L779450] (first compound 0.02 µM, partner dose 0.2 µM) | 75.5 |
| CCN(CC)CCCCNc1ncc2cc(-c3cc(OC)cc(OC)c3)c(NC(=O)NC(C)(C)C)nc2n1 + Cc1cc([N+](=O)[O-])ccc1NS(=O)(=O)c1cc(Cl)ccc1Cl [FH535] (first compound 0.1 µM, partner dose 1 µM) | 51.8 |
| O=S(=O)(c1ccccc1)N(CC(F)(F)F)c1ccc(C(O)(C(F)(F)F)C(F)(F)F)cc1 + Cc1cc([N+](=O)[O-])ccc1NS(=O)(=O)c1cc(Cl)ccc1Cl [FH535] (first compound 1.4 µM, partner dose 1 µM) | 329 |
| COc1cc2ncnc(Nc3ccc(Oc4ccccc4)cc3)c2cc1OC + O=C(O)C(=O)Nc1sc2c(c1C(=O)O)CCNC2 [TCS401] (first compound 2 µM, partner dose 1.66667 µM) | 28.4 |

Some of the entries so far, field by field.
CN(C)S(=O)(=O)c1ccc2c(c1)/C(=C/c1cc3c([nH]1)CCCC3)C(=O)N2 + COc1ccc(COc2ccc(Cc3cnc(N)nc3N)cc2OC)cc1 [GW2580] (first compound 0.4 µM, partner dose 1 µM)
  cleaved PARP positive nuclei fraction [%]: 75.1
COc1ccc(COc2ccc(Cc3cnc(N)nc3N)cc2OC)cc1 + c1cc(-c2cnn3cc(-c4ccc(OCCN5CCCCC5)cc4)cnc23)ccn1 [Dorsomorphin] (first compound 1 µM, partner dose 0.4 µM)
  cleaved PARP positive nuclei fraction [%]: 71
